From patent US10188107B2 (Heinrich Heine Universität Düsseldorf, priority 2013, dated 2019)
For at least one compound, name, drawing or mass did not settle the structure.

Legend:
[1] = molecular target: T1, PEP carboxylase from F. trinervia (C4 PEPC) (Flaveria trinervia, UniProt P30694); assay: Spectrophotometric coupled assay with malate dehydrogenase, C4 PEP carboxylase; type: biochemical; settings: range of concentrations, triplicate; C3 PEPC activity compared at the C4 IC50 concentration (figure legend)
T1 construct: histidine tag; made in house; host or cells: E. coli
T1 sequence (P30694 1-966): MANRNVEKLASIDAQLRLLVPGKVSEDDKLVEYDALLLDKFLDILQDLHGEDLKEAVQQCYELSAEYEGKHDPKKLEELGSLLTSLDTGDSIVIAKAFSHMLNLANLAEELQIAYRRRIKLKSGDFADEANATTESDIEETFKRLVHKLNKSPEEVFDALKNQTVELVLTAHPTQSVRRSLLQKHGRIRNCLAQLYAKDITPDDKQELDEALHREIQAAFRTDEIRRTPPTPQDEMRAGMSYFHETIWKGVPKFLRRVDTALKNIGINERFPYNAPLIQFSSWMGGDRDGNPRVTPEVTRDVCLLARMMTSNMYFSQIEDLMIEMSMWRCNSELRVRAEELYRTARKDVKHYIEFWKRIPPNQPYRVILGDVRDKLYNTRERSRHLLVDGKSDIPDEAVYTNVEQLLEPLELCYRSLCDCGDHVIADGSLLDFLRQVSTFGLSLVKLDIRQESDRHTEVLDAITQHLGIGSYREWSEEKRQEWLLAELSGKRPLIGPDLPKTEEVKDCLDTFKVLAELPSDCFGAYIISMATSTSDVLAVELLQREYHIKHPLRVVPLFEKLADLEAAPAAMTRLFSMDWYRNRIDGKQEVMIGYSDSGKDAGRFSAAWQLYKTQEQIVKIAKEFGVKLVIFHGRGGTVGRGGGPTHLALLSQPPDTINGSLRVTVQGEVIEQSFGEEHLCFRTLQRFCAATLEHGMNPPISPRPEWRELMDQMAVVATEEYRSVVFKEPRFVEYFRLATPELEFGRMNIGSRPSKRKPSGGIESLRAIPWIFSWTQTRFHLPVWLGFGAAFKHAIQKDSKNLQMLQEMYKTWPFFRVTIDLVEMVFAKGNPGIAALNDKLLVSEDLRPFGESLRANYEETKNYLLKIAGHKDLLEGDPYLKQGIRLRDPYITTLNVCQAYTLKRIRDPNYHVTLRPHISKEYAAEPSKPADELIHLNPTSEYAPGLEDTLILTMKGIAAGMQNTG
Description: How to determine the activity of a PEP carboxylase is well known in the art. E.g, the formation of oxaloacetate can be determined spectrophotometrically, e.g., in a malate dehydrogenase coupled system. The reaction velocity can be measured as a decrease in A340 resulting from the oxidation of NADH.
Inhibition of purified PEP carboxylases from F. pringlei and F. trinervia by compounds selected from the VDS was monitored by a spectrophotometric coupled assay with malate dehydrogenase which reduces the oxaloacetate formed by PEP carboxylase to malate. The simultaneous oxidation of NADH is followed at 340 nm with standard optical equipment. The concentration of the inhibitors selected from the VDS was varied in the coupled assay to determine the half maximal inhibitory concentration (IC50).

[2] = test system: PEP carboxylase from C4 plant Amaranthus viridis; settings: cited from earlier work

| SMILES | Inhibition of a C4-PEPC [1] | inhibition of PEP carboxylase from Amaranthus viridis [2] |
| --- | --- | --- |
| O=C1C=CC(=C(c2ccc(O)c(O)c2)c2ccccc2S(=O)(=O)O)C=C1O (mixture of isomers) [pyrocatechol violet, Pyrocatechol Violet] | Selective inhibition | – |
| C[C@@H]1O[C@@H](Oc2c(-c3ccc(O)c(O)c3)oc3cc(O)cc(O)c3c2=O)[C@H](O)[C@H](O)[C@H]1O [quercitrin] | – | inhibited |
